These are yes or no findings as the source states them, for the method shown. Binding seen in cells or lysates may run through a third protein. Binding can be weak; no strength is given.
Target: MMP9-SFB (human) (UniProt P14780)
Assay: co-IP; whole cell lysates of ESCC cells transfected with MDK-SFB, MMP2-SFB or MMP9-SFB; IP lysis buffer (50 mM Tris, 150 mM NaCl, 0.5% NP-40, 5 mM EDTA); anti-FLAG M2 beads overnight; blots for endogenous SRGN and CD44

The chains behind the UniProt entries cited, without tags or fusion partners. Where a name states a change or a piece, a line headed by the entry shows the natural chain unless it says otherwise.
UniProt P14780: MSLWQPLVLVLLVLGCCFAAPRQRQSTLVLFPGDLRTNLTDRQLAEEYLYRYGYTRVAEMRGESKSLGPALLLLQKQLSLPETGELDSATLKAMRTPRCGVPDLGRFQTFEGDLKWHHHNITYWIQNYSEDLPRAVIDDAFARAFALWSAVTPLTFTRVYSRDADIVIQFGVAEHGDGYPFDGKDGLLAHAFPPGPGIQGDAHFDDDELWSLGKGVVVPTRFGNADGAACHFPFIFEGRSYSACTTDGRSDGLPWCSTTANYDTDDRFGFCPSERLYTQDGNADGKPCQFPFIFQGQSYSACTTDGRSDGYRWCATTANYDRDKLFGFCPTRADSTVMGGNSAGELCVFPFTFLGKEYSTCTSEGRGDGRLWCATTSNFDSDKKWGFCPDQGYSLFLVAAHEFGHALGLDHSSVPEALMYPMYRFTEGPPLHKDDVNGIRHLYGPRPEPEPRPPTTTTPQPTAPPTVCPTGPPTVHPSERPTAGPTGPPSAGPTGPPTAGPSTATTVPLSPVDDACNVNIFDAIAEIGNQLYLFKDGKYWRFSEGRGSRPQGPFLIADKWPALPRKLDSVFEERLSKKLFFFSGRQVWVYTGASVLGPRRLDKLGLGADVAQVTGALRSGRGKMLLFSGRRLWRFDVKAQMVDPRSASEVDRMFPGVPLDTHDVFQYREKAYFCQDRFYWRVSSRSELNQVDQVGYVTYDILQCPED

binding: binds
B1: core protein of serglycin (SRGN) at ~28 kDa, endogenous in ESCC cell lysates (protein, UniProt P10124 28-158)
chain: YPTRRARYQWVRCNPDSNSANCLEEKGPMFELLPGESNKIPRLRTDLFPKTRIQDLNRIFPLSEDYSGSGFGSGSGSGSGSGSGFLTEMEQDYQLVDESDAFHDNLRSLDRNLPSDSQDLGQHGLEEDFML

— publication PMC7806492
